According to patent publication US8168628B2, “Conjugated psychotropic drugs and uses thereof” (Ramot at Tel-Aviv University Ltd., priority 2001, dated 2012):
At least one structure is not confirmed: it was looked up by name or label, or the drawing left a doubt.

System: rats
Assay: D-Amphetamine-induced hyperactivity in rats
Assay type: in vivo, rat
Procedure: D-Amphetamine-induced hyperactivity in rats: The efficacy of the chemical conjugates of the present invention was studied using the D-amphetamine-induced hyperactivity and motility model, which is known as one of the most established animal models for schizophrenia.
Naïve Wistar male rats were placed in individual boxes. In each experiment 4 rats were studied. Perphenazine or equimolar doses of its chemical conjugate AN-168 were administered intraperitoneally (ip) to the rats 30 minutes prior to intraperitoneal administration of amphetamine (2.5 mg/kg), or 90 minutes prior to oral administration of amphetamine (2.5 mg/kg). The animals locomotor activity was assessed using two parameters: climbing attempts of the animal on the barrel walls (as big movements) and head movement of the animal (as small movements). Assessment was recorded every 15 minutes for two hours. Each animal was tested at each time point for 120 seconds.
The climbing behavior of the rats in each group was measured as described hereinabove.

Cc1cc2c(s1)Nc1ccccc1N=C2N1CCN(C)CC1 [olanzapine]
D-amphetamine-induced head movements (oral olanzapine 2.5, 5 or 10 mg/kg (FIG. 31)): almost no effect | D-amphetamine-induced climbing behavior (oral olanzapine 2.5, 5 or 10 mg/kg (FIGS. 29, 30)): substantially antagonizing the climbing behavior induced by amphetamine only at high doses (10 mg/kg)
